# Measurements: publication PMC10063672
# By UniProt entry, the sequences of proteins in these tests, tags left out.
# UniProt Q9ESD7: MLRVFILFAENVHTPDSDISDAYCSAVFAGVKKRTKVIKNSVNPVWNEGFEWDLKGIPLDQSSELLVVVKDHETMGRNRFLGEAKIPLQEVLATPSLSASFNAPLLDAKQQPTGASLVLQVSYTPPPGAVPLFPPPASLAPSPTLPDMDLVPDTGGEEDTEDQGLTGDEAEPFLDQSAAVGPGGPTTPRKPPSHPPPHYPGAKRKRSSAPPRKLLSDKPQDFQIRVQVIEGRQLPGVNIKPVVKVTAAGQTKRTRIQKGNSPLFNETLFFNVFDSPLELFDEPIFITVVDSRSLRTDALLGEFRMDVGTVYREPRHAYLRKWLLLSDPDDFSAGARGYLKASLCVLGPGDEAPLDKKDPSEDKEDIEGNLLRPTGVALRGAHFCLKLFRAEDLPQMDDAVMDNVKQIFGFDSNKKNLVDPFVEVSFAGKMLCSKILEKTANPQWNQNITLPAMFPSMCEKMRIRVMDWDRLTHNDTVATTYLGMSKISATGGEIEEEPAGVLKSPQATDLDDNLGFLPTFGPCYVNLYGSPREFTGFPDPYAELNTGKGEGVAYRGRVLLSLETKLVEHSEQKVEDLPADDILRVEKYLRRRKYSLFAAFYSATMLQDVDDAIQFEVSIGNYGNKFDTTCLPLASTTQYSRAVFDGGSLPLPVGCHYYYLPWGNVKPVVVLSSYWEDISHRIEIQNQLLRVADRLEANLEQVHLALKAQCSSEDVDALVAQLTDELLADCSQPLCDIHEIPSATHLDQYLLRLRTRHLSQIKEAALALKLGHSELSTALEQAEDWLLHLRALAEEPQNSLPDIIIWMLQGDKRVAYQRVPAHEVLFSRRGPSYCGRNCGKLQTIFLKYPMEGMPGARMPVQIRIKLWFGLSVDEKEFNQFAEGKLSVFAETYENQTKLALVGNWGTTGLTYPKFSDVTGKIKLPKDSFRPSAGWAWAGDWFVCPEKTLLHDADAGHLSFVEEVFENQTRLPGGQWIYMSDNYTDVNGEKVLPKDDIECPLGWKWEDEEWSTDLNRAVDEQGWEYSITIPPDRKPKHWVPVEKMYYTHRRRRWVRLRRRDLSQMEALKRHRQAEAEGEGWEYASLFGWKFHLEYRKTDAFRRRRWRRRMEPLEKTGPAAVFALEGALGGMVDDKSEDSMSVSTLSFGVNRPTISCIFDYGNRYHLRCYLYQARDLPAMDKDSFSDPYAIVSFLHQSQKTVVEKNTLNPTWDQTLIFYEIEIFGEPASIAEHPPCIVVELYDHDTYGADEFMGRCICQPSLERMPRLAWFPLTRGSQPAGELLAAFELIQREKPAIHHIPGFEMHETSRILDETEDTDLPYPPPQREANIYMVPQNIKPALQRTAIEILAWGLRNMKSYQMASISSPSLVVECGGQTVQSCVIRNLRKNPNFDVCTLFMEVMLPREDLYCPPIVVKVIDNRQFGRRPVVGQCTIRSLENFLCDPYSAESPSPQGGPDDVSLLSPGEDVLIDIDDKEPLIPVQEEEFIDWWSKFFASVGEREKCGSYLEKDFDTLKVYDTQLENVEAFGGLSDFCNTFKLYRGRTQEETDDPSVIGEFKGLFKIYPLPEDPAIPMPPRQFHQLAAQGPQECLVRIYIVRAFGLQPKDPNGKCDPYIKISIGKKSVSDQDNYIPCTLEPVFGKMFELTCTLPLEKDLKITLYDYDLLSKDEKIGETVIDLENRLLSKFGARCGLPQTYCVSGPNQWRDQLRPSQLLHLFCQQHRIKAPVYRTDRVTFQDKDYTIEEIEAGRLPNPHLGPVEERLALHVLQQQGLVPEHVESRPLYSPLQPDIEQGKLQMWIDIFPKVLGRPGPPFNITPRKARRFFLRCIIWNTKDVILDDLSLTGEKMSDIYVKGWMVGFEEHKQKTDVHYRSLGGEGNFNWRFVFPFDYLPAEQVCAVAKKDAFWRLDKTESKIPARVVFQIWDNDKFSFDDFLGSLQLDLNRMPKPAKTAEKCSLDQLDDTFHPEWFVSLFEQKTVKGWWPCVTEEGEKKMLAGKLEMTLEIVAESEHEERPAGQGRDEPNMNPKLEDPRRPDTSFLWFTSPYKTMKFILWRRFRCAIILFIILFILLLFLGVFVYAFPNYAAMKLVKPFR
# UniProt P11531: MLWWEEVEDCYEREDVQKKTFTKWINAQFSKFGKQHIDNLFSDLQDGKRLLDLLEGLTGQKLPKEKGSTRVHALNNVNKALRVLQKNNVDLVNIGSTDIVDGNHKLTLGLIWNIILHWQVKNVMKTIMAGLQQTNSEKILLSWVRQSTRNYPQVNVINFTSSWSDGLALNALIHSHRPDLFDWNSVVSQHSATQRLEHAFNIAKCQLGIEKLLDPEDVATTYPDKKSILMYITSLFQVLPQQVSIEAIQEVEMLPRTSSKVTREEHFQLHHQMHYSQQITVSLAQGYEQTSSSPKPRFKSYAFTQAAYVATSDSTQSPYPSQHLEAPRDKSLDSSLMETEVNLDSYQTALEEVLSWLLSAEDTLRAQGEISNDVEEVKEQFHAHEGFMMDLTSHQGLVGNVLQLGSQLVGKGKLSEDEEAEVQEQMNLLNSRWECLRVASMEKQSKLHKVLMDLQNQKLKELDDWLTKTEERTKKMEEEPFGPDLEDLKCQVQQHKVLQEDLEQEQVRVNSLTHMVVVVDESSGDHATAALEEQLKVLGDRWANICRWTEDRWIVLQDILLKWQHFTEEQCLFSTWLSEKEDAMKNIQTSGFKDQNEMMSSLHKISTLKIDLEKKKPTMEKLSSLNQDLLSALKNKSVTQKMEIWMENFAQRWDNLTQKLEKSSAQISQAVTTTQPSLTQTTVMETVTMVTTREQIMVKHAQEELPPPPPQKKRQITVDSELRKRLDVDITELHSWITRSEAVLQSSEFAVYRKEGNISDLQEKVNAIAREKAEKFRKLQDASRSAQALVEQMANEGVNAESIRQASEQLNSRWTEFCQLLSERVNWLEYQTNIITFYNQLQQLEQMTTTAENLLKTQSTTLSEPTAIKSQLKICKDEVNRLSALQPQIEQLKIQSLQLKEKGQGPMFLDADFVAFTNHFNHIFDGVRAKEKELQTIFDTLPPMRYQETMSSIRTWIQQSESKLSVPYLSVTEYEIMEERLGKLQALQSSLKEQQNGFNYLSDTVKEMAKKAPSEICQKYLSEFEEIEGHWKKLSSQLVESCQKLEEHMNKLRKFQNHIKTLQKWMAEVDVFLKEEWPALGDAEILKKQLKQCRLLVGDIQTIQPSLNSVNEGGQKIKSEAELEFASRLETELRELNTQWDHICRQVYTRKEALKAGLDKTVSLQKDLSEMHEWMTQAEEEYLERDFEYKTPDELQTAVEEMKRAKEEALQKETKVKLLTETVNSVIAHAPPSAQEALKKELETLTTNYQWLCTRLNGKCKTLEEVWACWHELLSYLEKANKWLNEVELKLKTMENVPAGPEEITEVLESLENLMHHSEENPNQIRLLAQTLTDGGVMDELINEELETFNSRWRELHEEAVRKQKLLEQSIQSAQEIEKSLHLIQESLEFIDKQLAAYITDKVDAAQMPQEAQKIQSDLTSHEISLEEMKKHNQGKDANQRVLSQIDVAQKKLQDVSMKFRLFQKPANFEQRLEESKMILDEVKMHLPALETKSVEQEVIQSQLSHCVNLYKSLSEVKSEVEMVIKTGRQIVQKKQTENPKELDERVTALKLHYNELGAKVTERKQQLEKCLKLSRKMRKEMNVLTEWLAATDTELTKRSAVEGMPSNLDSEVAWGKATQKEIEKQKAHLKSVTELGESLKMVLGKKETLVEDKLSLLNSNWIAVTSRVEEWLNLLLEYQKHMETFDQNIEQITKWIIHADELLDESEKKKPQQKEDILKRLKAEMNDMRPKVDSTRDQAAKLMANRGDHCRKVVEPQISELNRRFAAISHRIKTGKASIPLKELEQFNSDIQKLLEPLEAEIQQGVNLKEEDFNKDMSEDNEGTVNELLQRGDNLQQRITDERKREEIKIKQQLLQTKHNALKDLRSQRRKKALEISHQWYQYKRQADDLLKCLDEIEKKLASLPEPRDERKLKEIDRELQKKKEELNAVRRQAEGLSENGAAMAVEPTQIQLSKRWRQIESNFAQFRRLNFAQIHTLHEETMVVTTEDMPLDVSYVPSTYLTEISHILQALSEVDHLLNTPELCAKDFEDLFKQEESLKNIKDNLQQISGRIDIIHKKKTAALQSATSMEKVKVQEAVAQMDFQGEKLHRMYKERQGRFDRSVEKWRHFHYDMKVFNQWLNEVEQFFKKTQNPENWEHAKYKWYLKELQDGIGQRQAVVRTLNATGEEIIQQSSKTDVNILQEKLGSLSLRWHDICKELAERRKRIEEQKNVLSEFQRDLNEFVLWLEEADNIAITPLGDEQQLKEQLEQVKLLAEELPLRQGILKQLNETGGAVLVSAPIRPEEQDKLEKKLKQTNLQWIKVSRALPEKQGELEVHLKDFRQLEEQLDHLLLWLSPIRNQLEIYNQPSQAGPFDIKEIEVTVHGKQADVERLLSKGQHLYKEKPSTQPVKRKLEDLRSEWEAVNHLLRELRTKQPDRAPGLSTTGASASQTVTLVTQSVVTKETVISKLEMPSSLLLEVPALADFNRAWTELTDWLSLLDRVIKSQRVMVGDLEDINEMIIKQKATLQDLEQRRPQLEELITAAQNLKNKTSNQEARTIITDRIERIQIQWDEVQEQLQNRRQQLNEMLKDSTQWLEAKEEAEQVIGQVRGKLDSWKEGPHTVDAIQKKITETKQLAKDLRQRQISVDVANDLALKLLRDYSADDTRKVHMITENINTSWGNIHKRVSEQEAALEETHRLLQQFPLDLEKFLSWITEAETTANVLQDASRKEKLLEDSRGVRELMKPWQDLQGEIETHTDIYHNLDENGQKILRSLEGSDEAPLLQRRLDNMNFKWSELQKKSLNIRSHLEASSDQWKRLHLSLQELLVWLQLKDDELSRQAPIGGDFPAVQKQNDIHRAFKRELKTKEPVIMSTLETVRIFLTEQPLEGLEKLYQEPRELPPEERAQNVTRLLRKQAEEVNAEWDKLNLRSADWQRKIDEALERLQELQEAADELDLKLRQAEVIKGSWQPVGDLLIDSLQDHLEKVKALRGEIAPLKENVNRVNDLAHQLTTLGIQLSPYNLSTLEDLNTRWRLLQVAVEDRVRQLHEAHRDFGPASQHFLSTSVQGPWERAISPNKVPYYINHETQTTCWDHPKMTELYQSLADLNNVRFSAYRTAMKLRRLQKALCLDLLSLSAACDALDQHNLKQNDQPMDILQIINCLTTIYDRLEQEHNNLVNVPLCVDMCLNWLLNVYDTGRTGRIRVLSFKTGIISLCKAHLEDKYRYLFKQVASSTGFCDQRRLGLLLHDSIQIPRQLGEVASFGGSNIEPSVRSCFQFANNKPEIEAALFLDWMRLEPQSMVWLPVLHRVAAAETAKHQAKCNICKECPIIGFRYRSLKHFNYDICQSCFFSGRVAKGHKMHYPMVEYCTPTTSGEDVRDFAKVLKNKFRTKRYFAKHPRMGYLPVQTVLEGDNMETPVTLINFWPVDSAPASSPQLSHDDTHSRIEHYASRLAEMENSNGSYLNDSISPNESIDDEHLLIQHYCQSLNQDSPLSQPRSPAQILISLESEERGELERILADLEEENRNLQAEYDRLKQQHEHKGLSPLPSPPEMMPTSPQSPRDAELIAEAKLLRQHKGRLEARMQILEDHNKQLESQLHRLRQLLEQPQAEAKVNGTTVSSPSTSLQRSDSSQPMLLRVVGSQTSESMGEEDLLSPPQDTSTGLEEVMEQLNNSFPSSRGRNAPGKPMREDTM
# No constants are given. Whether binding was seen depends on the method and setting. In cells and extracts the contact can be indirect. These calls come from enrichment with a bait or labelling near it, and not all partners need be listed. Sequences can lack the tags named with a protein.
# T1: BVES-3xHA (human blood vessel epicardial substance, HA-tagged), delivered by AAV9 into mouse skeletal muscle (human) (UniProt Q8NE79)
# T1 sequence: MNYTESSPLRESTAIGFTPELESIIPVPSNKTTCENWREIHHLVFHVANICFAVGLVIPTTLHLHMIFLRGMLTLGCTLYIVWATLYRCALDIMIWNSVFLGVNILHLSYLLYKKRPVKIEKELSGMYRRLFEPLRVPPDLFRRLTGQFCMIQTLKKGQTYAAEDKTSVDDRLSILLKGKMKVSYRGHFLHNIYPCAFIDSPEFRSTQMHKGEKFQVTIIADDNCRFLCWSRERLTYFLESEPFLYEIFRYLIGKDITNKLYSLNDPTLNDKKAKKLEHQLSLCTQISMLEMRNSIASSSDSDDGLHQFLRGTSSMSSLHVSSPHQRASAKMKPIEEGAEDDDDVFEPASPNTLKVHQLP
# Biological target: T1, BVES-3xHA (human blood vessel epicardial substance, HA-tagged), delivered by AAV9 into mouse skeletal muscle (human)
# Test: affinity purification with mass spectrometry; anti-HA magnetic beads, 1 h at 4 °C, on gastrocnemius muscle lysates of BVES-KO mice injected with AAV9-BVES-3xHA (WT mice as control); lysis buffer 25 mM Tris-HCl pH 7.4, 150 mM NaCl, 5% glycerol, 1% Triton X-100, 2 mM EDTA, 1 mM DTT; four washes; background of the control sample subtracted
row,binding,Molecule
1,binds,"dysferlin, endogenous in mouse skeletal muscle (from UniProt Q9ESD7 1-2090)"
2,binds,"dystrophin, endogenous in mouse skeletal muscle (from UniProt P11531 1-3678)"
3,binds,"ADCY9 (adenylyl cyclase 9), endogenous in mouse skeletal muscle (enzyme, UniProt P51830 1-1353) MASSPHQQLLHHHSTEVSCDSSGDSNSVRVKINPKQLSSNTHPKHCKYSISSSCSSSGDSGGLPRRVGGGGRLRRQKKLPQLFERASSRWWDPKFDSMNLEEACLERCFPQTQRRFRYALFYVGFACLLWSIYFAVHMKSKVIVMVVPALCFLVVCVGFFLFTFTKLYARHYAWTSLALTLLVFALTLAAQFQVWTPLSGRVDSSNHTLTATPADTCLSQVGSFSICIEVLLLLYTVMQLPLYLSLFLGVVYSVLFETFGYHFRNEDCYPSPGPGALHWELLSRALLHVCIHAIGIHLFVMSQVRSRSTFLKVGQSIMHGKDLEVEKALKERMIHSVMPRIIADDLMKQGDEESENSVKRHATSSPKNRKKKSSIQKAPIAFRPFKMQQIEEVSILFADIVGFTKMSANKSAHALVGLLNDLFGRFDRLCEQTKCEKISTLGDCYYCVAGCPEPRADHAYCCIEMGLGMIKAIEQFCQEKKEMVNMRVGVHTGTVLCGILGMRRFKFDVWSNDVNLANLMEQLGVAGKVHISEATAKYLDDRYEMEDGRVIERLGQSVVADQLKGLKTYLISGQRAKESHCSCAEALLSGFEVIDDSRESSGPRGQGTASPGSVSDLAQTVKTFDNLKTCPSCGITFAPKSEAGAEGGTVQNGCQDEPKTSTKASGGPNSKTQNGLLSPPAEEKLTNSQTSLCEILQEKGRWAGVSLDQSALLPLRFKNIREKTDAHFVDVIKEDSLMKDYFFKPPINQFSLNFLDQELERSYRTSYQEEVIKNSPVKTFASATFSSLLDVFLSTTVFLILSITCFLKYGATATPPPPAALAVFGADLLLEVLSLIVSIRMVFFLEDVMTCTKWLLEWIAGWLPRHCIGAILVSLPALAVYSHITSEFETNIHVTMFTGSAVLVAVVHYCNFCQLSSWMRSSLATIVGAGLLLLLHISLCQDSSIVMSPLDSAQNFSAQRNPCNSSVLQDGRRPASLIGKELILTFFLLLLLVWFLNREFEVSYRLHYHGDVEADLHRTKIQSMRDQADWLLRNIIPYHVAEQLKVSQTYSKNHDSGGVIFASIVNFSEFYEENYEGGKECYRVLNELIGDFDELLSKPDYNSIEKIKTIGATYMAASGLNTAQCQEGGHPQEHLRILFEFAKEMMRVVDDFNNNMLWFNFKLRVGFNHGPLTAGVIGTTKLLYDIWGDTVNIASRMDTTGVECRIQVSEESYRVLSKMGYDFDYRGTVNVKGKGQMKTYLYPKCTDNGVVPQHQLSISPDIRVQVDGSIGRSPTDEIANLVPSVQYSDKASLGSDDSTQAKEARLSSKRSWREPVKAEERFPFGKAIEKDSCEDIGVEEASELSKLNVSKSV"
